Experimental data published in US20200255492A1, “LEPTIN PEPTIDES AND THEIR USE FOR TREATING NEUROLOGICAL DISORDERS” (UNIVERSITY OF DUNDEE, priority 2017, published 2020).

How the values were obtained:
[1] = Serum leptin levels by ELISA after injection of hexamers; assay type: in vivo, mice; details: blood serum 24 hours post injection
[2] = tested on: C57/BL6 mice; test: Object-place-context (OPC) recognition task, episodic-like memory; assay type: in vivo; details: 100 μl IP of 7.8 nM/ml; sample and test phases
Protocol: FIG. 7A, FIG. 7B, FIG. 7C and FIG. 7D show Leptin (116-130) enhances episodic-like memory. FIG. 7A: object-place-context task used to assess episodic-like memory. There are 2 sample phases in which mice are exposed to different copies of 2 different objects (star and hexagon) and allowed to explore for 3 min. In the test phase they see 2 new copies of 1 of the objects. The arrow points to the object that has not been previously seen in that place within that context. FIG. 7B: mean±SEM discrimination index for the 3 groups. *P<0.05. FIG. 7C: total exploration time in the test phase is not different between groups. FIG. 7D: exploration of the novel and familiar objects in the test phase; treatment with leptin or the leptin fragment (116-130) enhanced performance on the episodic-like memory test.
To further assess its therapeutic potential we next asked if this fragment has similar cognitive enhancing properties to the whole leptin molecule. Previous studies indicate that leptin enhances hippocampal-dependent memory (Oomura et al. 2006; Farr et al. 2006), whereas resistance to lep-tin results in impaired spatial memory (Li et al. 2002). We used the object-place-context (OPC) recognition task which models human episodic memory, the first cognitive process to be compromised in the early stages of AD (Swainson et al. 2001). […]

SCSLPQ (listed as Mus musculus) [leptin (116-121)]
serum level of native leptin [1]: did not significantly alter the level of native leptin

CSLPQT (listed as Mus musculus) [leptin (117-122)]
serum level of native leptin [1]: did not significantly alter the level of native leptin

leptin: the metabolic hormone leptin, whole (full length) leptin molecule; human leptin from Sigma in SH-SY5Y work
overall exploration time [2]: no change in total levels of exploration between groups

SCSLPQTSGLQKPES (listed as Mus musculus) [leptin (116-130)]
overall exploration time [2]: no change in total levels of exploration between groups
